Some of the results follow. Shown are side measurements of this screen, not its main read-out; they come without a call. The list favours compounds with an active or inconclusive main result. The note in brackets gives the kind of curve behind each potency; many fits are weak.
Experiment: qHTS Assay to Find Inhibitors of Chronic Active B-Cell Receptor Signaling
Settings: ABC-DLBCL IkBa-CBG/CBR reporter, luminescence ratio (green luciferase fused to IkBa over red control in TMD8 lymphoma cells), 4 h
Method in brief: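 TMD8 ABC-DLBCL cells carrying doxycycline-inducible green luciferase fused to IkappaBalpha plus unfused red luciferase were exposed to compounds (up to 46 uM) for 4 hrs at 37C. Activity came from the overlap-corrected green/red luminescence ratio.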

[1] = measured here: CBR red luminescence, cell number
[2] = measured here: IkBa-CBG green luminescence

Row | SMILES | AC50 [1] | AC50 [2]
1 | O=C(NCCN1C(=O)S/C(=C\c2ccc(Cl)c(Cl)c2)C1=O)c1ccc2c(c1)C(=O)N(Cc1ccncc1)C2=O | 32.6 µM [rising, partial curve, poor fit] | –
2 | CC(=O)Nc1ccc(SCCN2CC[C@@H](C)CCC2=O)cc1 | 29.1 µM [rising, single point] | –
3 | O=C1OCc2cc(NC(=O)C3COc4ccccc4O3)ccc21 (centres undefined) | 16.4 µM [rising, partial curve, poor fit] | –
4 | Cc1ccc(SCC(=O)OC(C)C(=O)NCc2ccccc2)cc1C (centres undefined) | 0.103 µM [rising, full curve, poor fit] | –
5 | COCc1cc(C)nc(SCc2ccc(F)cc2)c1C#N | 10 µM [rising, partial curve] | –
6 | C(=C\c1nc(-c2ccccc2)no1)/c1ccccc1 | 1.64 µM [falling, partial curve, poor fit] | –
7 | O=C(NNC(=O)c1cc([N+](=O)[O-])ccc1Cl)c1cccs1 | 16.4 µM [falling, partial curve] | –
8 | COc1ccccc1CNC(=O)c1ccc(-c2ccccc2Cl)o1 | 5.17 µM [falling, partial curve, poor fit] | –
9 | CC(NC(=O)CSc1cccc(C(F)(F)F)c1)c1ccccc1 (centres undefined) | 0.651 µM [rising, full curve] | –
10 | O=C(c1ccc(Br)cc1)C(CN1CCOCC1)c1ccccc1 (centres undefined) | 12.6 µM [falling, partial curve, poor fit] | –
11 | CCOc1ccccc1NC(=O)/C=C/C(N)=O | 9.2 µM [falling, partial curve] | 14.6 µM [rising, partial curve, poor fit]
12 | Cc1ccccc1CC1S/C(=N/N=C/c2ccco2)NC1=O (centres undefined) | 8.91 µM [rising, partial curve, poor fit] | –
13 | CSc1ncccc1C(=O)OCC(=O)N(C)c1c(N)n(Cc2ccccc2)c(=O)[nH]c1=O | 29.1 µM [rising, single point] | –
14 | COc1ccccc1C(=O)Nc1ccc2c(c1)n(C)c(=O)n2C | 1.58 µM [rising, partial curve] | 12.6 µM [falling, partial curve, poor fit]
15 | CC(C)(C)C(=O)/C=C(N)/C=C/c1ccccc1 | 15.8 µM [rising, partial curve, poor fit] | –
16 | Cc1cccc(NC(=O)c2cccc3c2C(=O)c2ccccc2-3)c1 | 0.1 µM [rising, full curve, poor fit] | –
17 | C[C@@H](NC(=O)OC(C)(C)C)c1nnc(S(=O)(=O)Cc2ccccc2)o1 | 8.91 µM [falling, partial curve, poor fit] | 10 µM [rising, partial curve, poor fit]
18 | O=C(CCc1ccccc1)Nc1c(F)c(F)c(F)c(F)c1F | 20 µM [rising, single point] | –
19 | Cc1ccc(SCCNC(=O)/C=C/c2ccccc2Cl)cc1 | 35.5 µM [falling, single point] | –
20 | Cc1cccc2cc(C#N)c(NCCCn3ccnc3)nc12 | 14.1 µM [rising, partial curve, poor fit] | –

3 entries out of the list, arranged by molar mass, falling:
Row | SMILES | AC50 [1] | AC50 [2]
18 | O=C(CCc1ccccc1)Nc1c(F)c(F)c(F)c(F)c1F | 20 µM [rising, single point] | –
12 | Cc1ccccc1CC1S/C(=N/N=C/c2ccco2)NC1=O (centres undefined) | 8.91 µM [rising, partial curve, poor fit] | –
15 | CC(C)(C)C(=O)/C=C(N)/C=C/c1ccccc1 | 15.8 µM [rising, partial curve, poor fit] | –

Later entries:

Row | SMILES | AC50 [1] | AC50 [2]
21 | CN(CCCNC(=O)CCCOc1cc(=O)n(C)c2ccccc12)Cc1ccccc1 | – | 14.1 µM [falling, partial curve, poor fit]
22 | Cc1cccc(C(=O)N2CCC(=O)N(C(COCc3cccc(Cl)c3)Cc3ccccc3)CC2)c1 (centres undefined) | 18.4 µM [falling, partial curve, poor fit] | –
23 | Cc1ccc(NC(=O)C2CCCCC2C(=O)O)cc1Cl (centres undefined) | 15.8 µM [rising, partial curve, poor fit] | –
24 | C=CCc1c(C)nc(-c2ccccc2)nc1N/N=C/c1ccccc1 | 18.4 µM [falling, partial curve] | –
25 | Cc1ccc(NC(=O)c2ncn[nH]2)cc1 | 7.94 µM [falling, partial curve, poor fit] | –
26 | O=C(COc1cccc2c1CCNC2=O)Nc1ccc(F)cc1 | 2.31 µM [falling, partial curve, poor fit] | –
27 | COCCCNC(=O)c1c(N)n(-c2ccccc2)c2nc3ccccc3nc12 | 8.91 µM [falling, partial curve, poor fit] | –
28 | CCc1ccc2[nH]c(=O)c(CN(CCN3CCCC3)C(=O)NC3CCCCC3)cc2c1 | 35.5 µM [falling, single point] | –
29 | CCc1nnc(N/N=C/c2ccccc2Cl)n1N | 35.5 µM [falling, single point] | –
30 | Cc1ccc(-c2nnn(CC(=O)N(CC(=O)NC(C)C)c3cnc4ccccc4c3)n2)o1 | 0.00461 µM [rising, full curve, poor fit] | –
31 | CC1CCCC(N2CCN(C(=O)c3ccccc3F)CC2)C1 (centres undefined) | 15.8 µM [rising, partial curve, poor fit] | –
32 | Nc1ccc(-c2nc3ccc(N)cc3[nH]2)cc1 | 17.8 µM [falling, single point] | –
33 | COC(=O)c1ccc(NC(=O)c2ccc(N(C)S(C)(=O)=O)cc2)cc1 | 6.51 µM [falling, single point] | –
34 | CC(=O)OC12CC3CC(C1)C(=NO)C(C3)C2 | 4.61 µM [rising, full curve, poor fit] | –
35 | c1ccc(OCc2nc3ccccc3s2)cc1 | 14.6 µM [falling, single point] | –
36 | COc1cc(C(=O)N/N=C/c2ccsc2C)cc(OC)c1OC | 6.31 µM [rising, full curve] | 8.91 µM [falling, partial curve]
37 | Cn1nc(-c2ccccc2)cc1NS(=O)(=O)c1ccccc1 | 10 µM [rising, partial curve, poor fit] | –
38 | C/C(=N/N=C/c1ccccc1O)c1ccccc1O | 0.501 µM [rising, partial curve, poor fit] | –
39 | Cc1nc(-c2ccc(NC(=O)C3CCCCC3)cc2)cs1 | 18.4 µM [falling, partial curve] | –
40 | CC(=O)Nc1ccc(NC(=O)c2cccc(Oc3ccccc3)c2)cc1 | 2.24 µM [falling, full curve] | –

From PubChem BioAssay AID493014 (National Center for Advancing Translational Sciences (NCATS), 2011)
